The other results are listed elsewhere or left out.
What was measured:
Assay in all cases: log2 fold change, soluble protein after heating vs DMSO (PISA); higher = thermal stabilisation; K562 cells, 10 uM, 30 min; active = over 0.2 and 3.5 SD of the protein, either way, in both replicates (recomputed)
[1] = compound: C1=CC=C(C=C1)[C@H](COC2=CC3=C(C=C2)NC(=O)N3)NC(=O)C4=CC=CN(C4=O)CC5=CC(=C(C=C5)F)F
In short: (§1)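 Thermal stability values are relative to control samples and come from duplicates. They are expressed as log2 fold changes. For measurement, K562 cells (2×10^6 cells/mL) received 10 μM compound for 30 min, and aliquots were heated for 3 min over 48°C-58°C, pooled, and extracted at 4°C in PBS with 0.5% NP-40. Soluble protein, the supernatant after 21,000xg for 90 min, was quantified by TMTpro 16plex LC-MS/MS with equalised channel sums.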

The chains behind the UniProt entries cited, without tags or fusion partners. Where a name states a change or a piece, a line headed by the entry shows the natural chain unless it says otherwise.
UniProt P15586: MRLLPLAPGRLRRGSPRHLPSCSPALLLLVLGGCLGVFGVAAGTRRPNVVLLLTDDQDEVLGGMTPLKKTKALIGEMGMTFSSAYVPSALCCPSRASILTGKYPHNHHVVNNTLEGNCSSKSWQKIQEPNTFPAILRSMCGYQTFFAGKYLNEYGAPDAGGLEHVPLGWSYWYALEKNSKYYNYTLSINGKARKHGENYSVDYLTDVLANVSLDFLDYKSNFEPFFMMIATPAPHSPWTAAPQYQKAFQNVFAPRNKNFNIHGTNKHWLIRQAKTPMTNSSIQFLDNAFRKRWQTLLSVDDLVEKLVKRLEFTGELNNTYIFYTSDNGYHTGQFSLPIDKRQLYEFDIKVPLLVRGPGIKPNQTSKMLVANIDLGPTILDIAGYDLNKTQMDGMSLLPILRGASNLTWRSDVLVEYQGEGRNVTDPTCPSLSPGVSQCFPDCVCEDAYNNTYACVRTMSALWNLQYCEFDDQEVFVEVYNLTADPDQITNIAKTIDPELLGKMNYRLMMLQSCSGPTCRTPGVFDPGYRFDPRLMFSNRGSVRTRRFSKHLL
UniProt P21695: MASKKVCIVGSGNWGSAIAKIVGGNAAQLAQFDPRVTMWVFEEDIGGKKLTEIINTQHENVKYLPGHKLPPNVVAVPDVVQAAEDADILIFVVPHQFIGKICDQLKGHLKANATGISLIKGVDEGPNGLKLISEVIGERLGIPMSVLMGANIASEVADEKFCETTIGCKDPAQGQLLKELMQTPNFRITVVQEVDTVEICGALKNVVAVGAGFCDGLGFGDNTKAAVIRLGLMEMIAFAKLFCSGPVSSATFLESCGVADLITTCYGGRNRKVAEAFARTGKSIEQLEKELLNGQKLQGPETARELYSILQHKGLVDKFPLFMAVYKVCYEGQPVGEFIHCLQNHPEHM
UniProt Q03113, whole entry, looked up: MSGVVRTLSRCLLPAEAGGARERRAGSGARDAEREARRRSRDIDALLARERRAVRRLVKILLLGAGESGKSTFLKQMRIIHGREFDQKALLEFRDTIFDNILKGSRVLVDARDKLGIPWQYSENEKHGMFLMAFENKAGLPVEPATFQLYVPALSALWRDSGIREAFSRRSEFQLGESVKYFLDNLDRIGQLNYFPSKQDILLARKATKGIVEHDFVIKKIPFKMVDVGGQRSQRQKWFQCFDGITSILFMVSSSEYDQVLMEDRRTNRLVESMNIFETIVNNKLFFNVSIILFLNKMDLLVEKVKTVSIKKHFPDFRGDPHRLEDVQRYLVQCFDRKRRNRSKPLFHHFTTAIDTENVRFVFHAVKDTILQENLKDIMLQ
UniProt Q13439: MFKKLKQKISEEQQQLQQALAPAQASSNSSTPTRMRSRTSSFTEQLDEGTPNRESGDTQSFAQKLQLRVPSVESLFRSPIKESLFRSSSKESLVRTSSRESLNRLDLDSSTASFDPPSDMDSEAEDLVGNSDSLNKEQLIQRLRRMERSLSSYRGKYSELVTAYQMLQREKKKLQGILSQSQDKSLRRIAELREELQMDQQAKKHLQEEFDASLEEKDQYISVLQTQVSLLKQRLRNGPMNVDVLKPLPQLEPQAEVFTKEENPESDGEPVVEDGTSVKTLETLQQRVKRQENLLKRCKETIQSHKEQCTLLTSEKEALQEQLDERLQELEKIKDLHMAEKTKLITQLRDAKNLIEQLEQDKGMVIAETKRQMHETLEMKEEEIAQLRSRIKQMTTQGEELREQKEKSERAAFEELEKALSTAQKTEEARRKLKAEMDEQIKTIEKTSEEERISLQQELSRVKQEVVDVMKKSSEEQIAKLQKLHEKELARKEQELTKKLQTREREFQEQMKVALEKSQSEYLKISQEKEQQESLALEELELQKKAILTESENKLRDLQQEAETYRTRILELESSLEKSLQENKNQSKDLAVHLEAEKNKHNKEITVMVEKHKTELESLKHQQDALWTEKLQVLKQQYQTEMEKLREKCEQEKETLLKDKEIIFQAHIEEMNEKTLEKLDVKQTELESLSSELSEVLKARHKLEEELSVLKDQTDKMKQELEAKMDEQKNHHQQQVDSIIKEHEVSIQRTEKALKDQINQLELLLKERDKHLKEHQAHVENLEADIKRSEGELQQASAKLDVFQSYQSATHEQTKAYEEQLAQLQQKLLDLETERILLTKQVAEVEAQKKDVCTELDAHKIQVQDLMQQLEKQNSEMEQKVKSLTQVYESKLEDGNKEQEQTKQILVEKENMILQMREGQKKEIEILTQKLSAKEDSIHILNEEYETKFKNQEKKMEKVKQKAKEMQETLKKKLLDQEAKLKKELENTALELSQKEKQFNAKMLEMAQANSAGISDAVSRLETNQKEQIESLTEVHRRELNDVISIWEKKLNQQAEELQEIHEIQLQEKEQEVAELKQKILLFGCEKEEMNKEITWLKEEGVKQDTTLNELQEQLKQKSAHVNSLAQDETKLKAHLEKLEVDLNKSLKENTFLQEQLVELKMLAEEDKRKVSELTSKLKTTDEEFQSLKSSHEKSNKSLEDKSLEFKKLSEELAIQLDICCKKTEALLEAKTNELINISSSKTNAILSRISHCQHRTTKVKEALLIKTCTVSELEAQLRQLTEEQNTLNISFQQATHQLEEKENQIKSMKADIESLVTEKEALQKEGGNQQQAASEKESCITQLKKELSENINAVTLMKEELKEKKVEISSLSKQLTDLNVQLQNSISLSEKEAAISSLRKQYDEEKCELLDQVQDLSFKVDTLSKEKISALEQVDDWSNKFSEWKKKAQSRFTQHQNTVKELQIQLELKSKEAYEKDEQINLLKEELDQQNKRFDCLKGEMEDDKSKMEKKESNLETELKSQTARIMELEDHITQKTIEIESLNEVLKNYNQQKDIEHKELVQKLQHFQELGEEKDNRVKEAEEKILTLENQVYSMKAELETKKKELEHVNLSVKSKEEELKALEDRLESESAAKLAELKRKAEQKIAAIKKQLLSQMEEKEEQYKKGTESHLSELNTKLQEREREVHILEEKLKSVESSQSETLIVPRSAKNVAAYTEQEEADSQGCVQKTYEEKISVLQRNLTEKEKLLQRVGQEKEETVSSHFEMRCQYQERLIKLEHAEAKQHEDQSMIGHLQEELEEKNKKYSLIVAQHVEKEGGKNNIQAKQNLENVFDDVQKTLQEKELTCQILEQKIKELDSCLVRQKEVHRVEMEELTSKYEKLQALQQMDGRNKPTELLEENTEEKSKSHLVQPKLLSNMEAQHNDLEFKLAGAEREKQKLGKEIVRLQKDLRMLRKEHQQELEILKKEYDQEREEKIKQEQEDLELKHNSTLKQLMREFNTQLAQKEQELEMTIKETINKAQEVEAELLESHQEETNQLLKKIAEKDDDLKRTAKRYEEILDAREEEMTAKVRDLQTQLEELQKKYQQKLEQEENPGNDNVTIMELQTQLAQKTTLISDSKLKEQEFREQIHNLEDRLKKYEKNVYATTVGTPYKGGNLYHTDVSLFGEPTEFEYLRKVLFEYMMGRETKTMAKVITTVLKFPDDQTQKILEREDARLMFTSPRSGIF
UniProt Q2TAP0: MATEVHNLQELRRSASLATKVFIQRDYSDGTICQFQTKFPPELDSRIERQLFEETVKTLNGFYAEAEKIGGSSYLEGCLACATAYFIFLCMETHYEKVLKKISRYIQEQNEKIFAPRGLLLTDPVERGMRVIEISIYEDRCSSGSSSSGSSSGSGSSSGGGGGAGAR
UniProt Q9UBQ7: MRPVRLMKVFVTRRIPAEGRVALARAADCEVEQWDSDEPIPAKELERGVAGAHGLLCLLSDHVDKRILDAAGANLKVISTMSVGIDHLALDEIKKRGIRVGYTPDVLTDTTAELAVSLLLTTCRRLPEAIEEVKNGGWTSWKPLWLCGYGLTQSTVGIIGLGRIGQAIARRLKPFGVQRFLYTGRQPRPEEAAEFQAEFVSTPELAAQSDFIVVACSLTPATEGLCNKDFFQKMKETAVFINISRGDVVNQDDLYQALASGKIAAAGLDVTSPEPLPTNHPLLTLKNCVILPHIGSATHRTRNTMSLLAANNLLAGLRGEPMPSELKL
UniProt O76003: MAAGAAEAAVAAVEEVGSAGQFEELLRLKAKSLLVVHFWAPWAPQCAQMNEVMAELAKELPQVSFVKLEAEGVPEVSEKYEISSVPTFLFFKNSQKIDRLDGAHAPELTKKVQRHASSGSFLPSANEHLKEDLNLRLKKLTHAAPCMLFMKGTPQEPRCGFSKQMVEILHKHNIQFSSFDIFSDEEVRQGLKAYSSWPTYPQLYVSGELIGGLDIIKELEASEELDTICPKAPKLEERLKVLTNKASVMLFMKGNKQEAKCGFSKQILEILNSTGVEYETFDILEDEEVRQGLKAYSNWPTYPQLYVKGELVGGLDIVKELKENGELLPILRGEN
UniProt Q92990: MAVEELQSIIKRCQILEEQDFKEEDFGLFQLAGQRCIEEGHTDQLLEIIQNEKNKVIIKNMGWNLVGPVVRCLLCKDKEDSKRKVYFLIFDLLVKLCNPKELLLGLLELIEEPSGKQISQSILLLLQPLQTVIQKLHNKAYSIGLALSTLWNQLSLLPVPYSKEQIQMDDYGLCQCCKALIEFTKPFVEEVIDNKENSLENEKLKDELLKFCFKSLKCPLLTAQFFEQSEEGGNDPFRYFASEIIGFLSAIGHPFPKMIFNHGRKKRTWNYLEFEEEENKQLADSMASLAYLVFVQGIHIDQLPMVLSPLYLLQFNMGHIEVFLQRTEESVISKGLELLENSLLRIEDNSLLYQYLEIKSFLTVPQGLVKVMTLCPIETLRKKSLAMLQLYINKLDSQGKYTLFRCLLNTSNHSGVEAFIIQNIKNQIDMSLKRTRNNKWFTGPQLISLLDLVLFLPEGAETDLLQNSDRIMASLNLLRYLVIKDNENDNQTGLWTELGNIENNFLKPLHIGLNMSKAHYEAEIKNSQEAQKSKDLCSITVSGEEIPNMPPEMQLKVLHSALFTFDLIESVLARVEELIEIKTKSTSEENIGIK
UniProt P29992, whole entry, looked up: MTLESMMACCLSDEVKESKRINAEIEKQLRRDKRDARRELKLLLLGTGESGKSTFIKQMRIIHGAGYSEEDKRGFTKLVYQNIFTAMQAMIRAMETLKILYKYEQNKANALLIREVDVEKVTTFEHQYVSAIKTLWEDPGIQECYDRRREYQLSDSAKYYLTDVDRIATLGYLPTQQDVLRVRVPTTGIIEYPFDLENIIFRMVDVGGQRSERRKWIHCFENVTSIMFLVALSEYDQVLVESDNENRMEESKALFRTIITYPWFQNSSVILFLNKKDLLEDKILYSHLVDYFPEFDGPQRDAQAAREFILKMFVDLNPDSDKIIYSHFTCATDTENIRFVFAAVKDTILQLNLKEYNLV
UniProt Q14749: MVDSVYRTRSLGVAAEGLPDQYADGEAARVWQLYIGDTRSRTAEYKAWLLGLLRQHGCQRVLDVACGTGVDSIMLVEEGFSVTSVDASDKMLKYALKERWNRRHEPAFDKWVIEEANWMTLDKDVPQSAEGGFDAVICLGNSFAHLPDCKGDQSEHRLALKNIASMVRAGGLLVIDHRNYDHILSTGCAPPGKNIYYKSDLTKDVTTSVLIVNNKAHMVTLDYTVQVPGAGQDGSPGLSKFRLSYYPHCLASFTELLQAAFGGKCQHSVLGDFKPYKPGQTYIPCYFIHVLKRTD
UniProt I6L899: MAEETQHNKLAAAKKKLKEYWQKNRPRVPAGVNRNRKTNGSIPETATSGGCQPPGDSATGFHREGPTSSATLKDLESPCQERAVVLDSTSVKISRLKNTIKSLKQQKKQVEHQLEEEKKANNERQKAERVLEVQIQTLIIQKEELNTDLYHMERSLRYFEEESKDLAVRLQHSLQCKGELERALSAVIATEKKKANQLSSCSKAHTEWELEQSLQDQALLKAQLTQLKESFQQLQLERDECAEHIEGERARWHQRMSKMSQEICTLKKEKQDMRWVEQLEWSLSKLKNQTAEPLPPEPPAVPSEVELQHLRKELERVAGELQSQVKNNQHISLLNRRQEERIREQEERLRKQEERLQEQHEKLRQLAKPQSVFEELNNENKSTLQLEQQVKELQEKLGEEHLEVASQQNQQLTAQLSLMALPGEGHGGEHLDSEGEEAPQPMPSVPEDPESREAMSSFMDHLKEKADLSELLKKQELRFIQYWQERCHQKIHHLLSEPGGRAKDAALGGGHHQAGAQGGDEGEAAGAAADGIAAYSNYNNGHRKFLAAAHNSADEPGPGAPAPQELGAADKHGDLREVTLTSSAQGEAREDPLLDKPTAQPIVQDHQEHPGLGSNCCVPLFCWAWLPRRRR
UniProt Q9Y3E0: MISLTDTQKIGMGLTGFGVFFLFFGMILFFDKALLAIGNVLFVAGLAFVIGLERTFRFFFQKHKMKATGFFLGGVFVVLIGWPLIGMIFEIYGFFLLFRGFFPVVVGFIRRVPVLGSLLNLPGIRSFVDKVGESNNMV
UniProt Q9NZD2: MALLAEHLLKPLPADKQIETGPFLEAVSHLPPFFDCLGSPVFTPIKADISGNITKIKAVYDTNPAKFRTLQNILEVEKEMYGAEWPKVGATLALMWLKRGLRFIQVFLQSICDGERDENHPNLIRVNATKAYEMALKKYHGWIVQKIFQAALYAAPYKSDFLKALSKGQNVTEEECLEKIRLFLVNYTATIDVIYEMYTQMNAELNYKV

[2] = compound: CC1=C(SC2=C1C(=N[C@H](C3=NN=C(N32)C)CC(=O)N)C4=CC=C(C=C4)Cl)C
In short: as §1

[3] = compound: CC1=C2C(=CC=C1)N=C(N(C2=O)C3=CC=CC=C3C)CN4C=NC5=C(N=CN=C54)N
In short: as §1

[4] = compound: Cc1sc2c(c1C)C(c1ccc(Cl)cc1)=N[C@@H](CC(=O)OC(C)(C)C)c1nnc(C)n1-2
In short: as §1

[5] = compound: c1ccc([C@@H]2C[C@H]2NC2CCNCC2)cc1
In short: as §1

Measured: log2 fold change

GPD1L (UniProt Q8N335)
inactive: [1] 0.016 | [2] -0.002 | [3] 0.058 | [4] 0.003 | [5] -0.009

GP1BB isoform 2 (UniProt P13224)
inactive: [1] -0.012 | [2] -0.03 | [3] 0.042 | [4] 0.011 | [5] 0.051

GNPDA1 (UniProt P46926)
inactive: [1] 0.021 | [2] 0.016 | [3] 0.016 | [4] -0.006 | [5] 0.055

GNS (UniProt P15586)
inactive: [1] 0.037 | [2] 0.011 | [3] 0.013 | [4] -0.001 | [5] 0.027

GPD1 (UniProt P21695)
inactive: [1] 0.095 | [2] 0.028 | [3] 0.123 | [4] -0.019 | [5] -0.238

GNA12 (UniProt Q03113)
inactive: [1] -0.082 | [2] 0.068 | [3] 0.097 | [4] 0.116 | [5] 0.063

GOLGA4 isoform 5 (UniProt Q13439)
inactive: [1] -0.053 | [2] -0.042 | [3] 0.019 | [4] 0 | [5] -0.023

GOLGA7B (UniProt Q2TAP0)
inactive: [1] -0.031 | [2] 0.085 | [3] 0.1 | [4] -0.013 | [5] 0.037

GRHPR (UniProt Q9UBQ7)
inactive: [1] 0.004 | [2] 0.099 | [3] 0.002 | [4] -0.099 | [5] -0.023

GPX4 (UniProt P36969)
inactive: [1] 0.029 | [2] 0.001 | [3] 0.017 | [4] -0.064 | [5] 0.028

Taken from the entries so far (3 entries):
GNA12 (UniProt Q03113)
inactive: [1] -0.082 | [2] 0.068 | [3] 0.097 | [4] 0.116 | [5] 0.063

GOLGA4 isoform 5 (UniProt Q13439)
inactive: [1] -0.053 | [2] -0.042 | [3] 0.019 | [4] 0 | [5] -0.023

GOLGA7B (UniProt Q2TAP0)
inactive: [1] -0.031 | [2] 0.085 | [3] 0.1 | [4] -0.013 | [5] 0.037

Following part

GLRX3 (UniProt O76003)
inactive: [1] 0.04 | [2] 0.072 | [3] 0.072 | [4] -0.033 | [5] -0.018

GMDS (UniProt O60547)
inactive: [1] 0.034 | [2] 0.077 | [3] 0.028 | [4] -0.017 | [5] -0.009

GNE isoform 2 (UniProt Q9Y223)
inactive: [1] -0.085 | [2] 0.1 | [3] 0.019 | [4] -0.003 | [5] -0.034

GOLGA7 (UniProt Q7Z5G4)
inactive: [1] 0.054 | [2] 0.082 | [3] 0.076 | [4] -0.05 | [5] 0.052

GOLM1 (UniProt Q8NBJ4)
inactive: [1] -0.175 | [2] 0.002 | [3] 0.221 | [4] -0.215 | [5] -0.021

GLMN (UniProt Q92990)
inactive: [1] -0.048 | [2] 0.057 | [3] -0.003 | [4] -0.01 | [5] 0.006

GNA11 (UniProt P29992)
inactive: [1] -0.013 | [2] 0.041 | [3] 0.074 | [4] -0.017 | [5] -0.01

GNMT (UniProt Q14749)
inactive: [1] -0.315 | [2] -0.116 | [3] 0.283 | [4] 0.019 | [5] -0.259

GOLIM4 (UniProt F8W785)
inactive: [1] 0.038 | [2] -0.111 | [3] -0.036 | [4] 0.014 | [5] 0.049

GNPAT (UniProt O15228)
inactive: [1] -0.034 | [2] 0.043 | [3] 0.07 | [4] -0.01 | [5] -0.036

GOLGA8R (UniProt I6L899)
inactive: [1] 0.106 | [2] 0.211 | [3] 0.326 | [4] 0.043 | [5] -0.003

GOLT1B (UniProt Q9Y3E0)
inactive: [1] -0.003 | [2] -0.001 | [3] 0.044 | [4] -0.052 | [5] 0.03

GIGYF2 (UniProt Q6Y7W6)
inactive: [1] -0.006 | [2] 0.057 | [3] 0.057 | [4] 0.012 | [5] -0.046

GPKOW (UniProt Q92917)
inactive: [1] -0.133 | [2] 0.078 | [3] 0.076 | [4] 0 | [5] -0.015

GLTP (UniProt Q9NZD2)
inactive: [1] -0.088 | [2] 0.072 | [3] 0.068 | [4] -0.19 | [5] -0.054

GPATCH1 (UniProt Q9BRR8)
inactive: [2] 0.051 | [3] 0.148 | [4] 0.374 | [5] 0.068

GPATCH2L (UniProt Q9NWQ4)
inactive: [4] 0.278

GNB1L (UniProt Q9BYB4)
inactive: [1] 0.007 | [2] 0.003 | [3] -0.023 | [4] -0.046 | [5] 0.004

GPS1 (UniProt A8K070)
inactive: [1] -0.046 | [2] -0.144 | [5] -0.039

GON4L (UniProt Q3T8J9)
inactive: [1] -0.207 | [2] 0.074 | [4] -0.026 | [5] 0.057

GIT2 (UniProt Q14161)
inactive: [1] -0.075 | [2] 0.032 | [5] -0.047

GLCE (UniProt O94923)
inactive: [1] 0.055 | [2] -0.031 | [5] -0.002

From the supplement of paper PMC10849652
